Drawing on article PMC5087487, “A Graphene Oxide-Based Fluorescent Method for the Detection of Human Chorionic Gonadotropin” (Sensors (Basel, Switzerland), 2016), this text covers binding for five substances.

The chains behind the UniProt entries cited, without tags or fusion partners. Where a name states a change or a piece, a line headed by the entry shows the natural chain unless it says otherwise. Residues count along the entry.
UniProt P02769, residues 25-607: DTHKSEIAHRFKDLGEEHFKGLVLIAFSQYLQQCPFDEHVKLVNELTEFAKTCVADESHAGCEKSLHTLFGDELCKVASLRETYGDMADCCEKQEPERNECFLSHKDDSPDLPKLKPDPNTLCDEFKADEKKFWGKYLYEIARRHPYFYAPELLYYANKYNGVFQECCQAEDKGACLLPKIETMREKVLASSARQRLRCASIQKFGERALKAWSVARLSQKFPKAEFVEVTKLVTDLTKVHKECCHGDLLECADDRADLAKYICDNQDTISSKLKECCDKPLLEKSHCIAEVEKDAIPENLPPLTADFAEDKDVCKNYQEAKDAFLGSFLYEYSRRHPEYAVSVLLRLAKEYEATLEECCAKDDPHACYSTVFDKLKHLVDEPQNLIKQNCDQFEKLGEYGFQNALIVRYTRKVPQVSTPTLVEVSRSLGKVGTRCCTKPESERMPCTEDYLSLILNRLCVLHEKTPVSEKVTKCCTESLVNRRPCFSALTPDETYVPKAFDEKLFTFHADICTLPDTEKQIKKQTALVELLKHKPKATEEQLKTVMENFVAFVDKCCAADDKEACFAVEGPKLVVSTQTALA
UniProt P01215: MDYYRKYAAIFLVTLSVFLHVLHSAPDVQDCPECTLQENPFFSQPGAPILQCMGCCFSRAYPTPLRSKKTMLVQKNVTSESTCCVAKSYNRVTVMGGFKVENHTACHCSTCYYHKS

Results are given in words; binding and its absence hold for the method and conditions named.

The target in test [1] is T1, FITC-labeled hCG-specific binding peptide aptamer FITC-….
T1 sequence (peptide, fluorescein isothiocyanate (FITC) on the N-terminus): PPLRINRHILTR
The test is described as follows: other fluorescence titration; 50 nM FITC-peptide first adsorbed on graphene oxide (2 ug/mL, 10 min, fluorescence quenched); protein added, 15 min at room temperature, PBS 20 mM pH 7.2; recovery of fluorescence (excitation 470 nm, emission 518 nm) on release of the peptide from GO; both purified.

Test [2] has the same target. Description: condition: serum sample with 16.14 mIU/mL FSH, 50 uL in 200 uL; other fluorescence titration; as a1, but the sample is centrifuged human serum: 50 uL supernatant + 50 uL PBS + 100 uL FITC-peptide/GO solution; only the target purified.
Test [3] shares this target. The test is described as follows: condition: serum sample with 11.82 mIU/mL LH, 50 uL in 200 uL; other fluorescence titration; as a1, but the sample is centrifuged human serum: 50 uL supernatant + 50 uL PBS + 100 uL FITC-peptide/GO solution; only the target purified.
The target is the same in test [4]. Description: condition: serum sample with 3.41 mIU/mL TSH, 50 uL in 200 uL; other fluorescence titration; as a1, but the sample is centrifuged human serum: 50 uL supernatant + 50 uL PBS + 100 uL FITC-peptide/GO solution; only the target purified.

Take “Beta-subunit of hCG (from UniProt P0DN86 21-165)”: the binding result in test [1] was “no binding (tested: 25 ng/mL)”.
The same measure, in the same setting: the result for “Bovine serum albumin (from UniProt P02769 25-607)” reads “no binding (tested: 10 ng/mL)”.
Consider “Follicle-stimulating hormone (from UniProt P01215 25-116; P01225 19-129) (complex)”, for which the binding entry in test [2] was “no binding”.
With “Luteotropic hormone (from UniProt P01215 25-116; P01229 21-141) (complex)”, in test [3], the binding entry is recorded as “no binding”.
Take “Thyroid stimulating hormone (from UniProt P01215 25-116; P01222 21-132) (complex)”: the binding entry in test [4] was “no binding”.
